From US10918697B2, “Co-activation of mTOR and STAT3 pathways to promote neuronal survival and regeneration” (Children's Medical Center Corporation, priority 2011, dated 2021)
“Also recorded” adds a separate entry of the source. At least one structure is not confirmed: it was looked up by name or label, or the drawing left a doubt.

Test system: retinal ganglion cells (RGCs) / optic nerve axons
Test: Optic nerve crush injury, count of regenerating axons
Type: in vivo, mice
Conditions: 14 days post-injury; for axon regeneration from SOCS3-deleted RGCs: SOCS3-/- mice with vs without rapamycin

`CO[C@H]1C[C@@H]2CC[C@@H](C)[C@@](O)(O2)C(=O)C(=O)N2CCCC[C@H]2C(=O)O[C@H]([C@H](C)C[C@@H]2CC[C@@H](O)[C@H](OC)C2)CC(=O)[C@H](C)/C=C(\C)[C@@H](O)[C@@H](OC)C(=O)[C@H](C)C[C@H](C)/C=C/C=C/C=C/1C` [rapamycin] was tested, and the “axon regeneration after PTEN deletion” value (PTEN-/- mice (AAV-Cre), systemic rapamycin vs PTEN-/- without rapamycin) was “abolished the majority of the axon regeneration; also recorded: significantly reduced”, the “axon regeneration from SOCS3-deleted RGCs” value was “did not affect axon regeneration” and the “axon regeneration from SOCS3-deleted RGCs” value (listed as Rapamycin) was “did not significantly reduce the number of regenerating axons”.
